# In paper PMC10820798:
# Sequences of proteins named here, by UniProt entry; tags and fusion partners are left off.
# UniProt Q8TCU4: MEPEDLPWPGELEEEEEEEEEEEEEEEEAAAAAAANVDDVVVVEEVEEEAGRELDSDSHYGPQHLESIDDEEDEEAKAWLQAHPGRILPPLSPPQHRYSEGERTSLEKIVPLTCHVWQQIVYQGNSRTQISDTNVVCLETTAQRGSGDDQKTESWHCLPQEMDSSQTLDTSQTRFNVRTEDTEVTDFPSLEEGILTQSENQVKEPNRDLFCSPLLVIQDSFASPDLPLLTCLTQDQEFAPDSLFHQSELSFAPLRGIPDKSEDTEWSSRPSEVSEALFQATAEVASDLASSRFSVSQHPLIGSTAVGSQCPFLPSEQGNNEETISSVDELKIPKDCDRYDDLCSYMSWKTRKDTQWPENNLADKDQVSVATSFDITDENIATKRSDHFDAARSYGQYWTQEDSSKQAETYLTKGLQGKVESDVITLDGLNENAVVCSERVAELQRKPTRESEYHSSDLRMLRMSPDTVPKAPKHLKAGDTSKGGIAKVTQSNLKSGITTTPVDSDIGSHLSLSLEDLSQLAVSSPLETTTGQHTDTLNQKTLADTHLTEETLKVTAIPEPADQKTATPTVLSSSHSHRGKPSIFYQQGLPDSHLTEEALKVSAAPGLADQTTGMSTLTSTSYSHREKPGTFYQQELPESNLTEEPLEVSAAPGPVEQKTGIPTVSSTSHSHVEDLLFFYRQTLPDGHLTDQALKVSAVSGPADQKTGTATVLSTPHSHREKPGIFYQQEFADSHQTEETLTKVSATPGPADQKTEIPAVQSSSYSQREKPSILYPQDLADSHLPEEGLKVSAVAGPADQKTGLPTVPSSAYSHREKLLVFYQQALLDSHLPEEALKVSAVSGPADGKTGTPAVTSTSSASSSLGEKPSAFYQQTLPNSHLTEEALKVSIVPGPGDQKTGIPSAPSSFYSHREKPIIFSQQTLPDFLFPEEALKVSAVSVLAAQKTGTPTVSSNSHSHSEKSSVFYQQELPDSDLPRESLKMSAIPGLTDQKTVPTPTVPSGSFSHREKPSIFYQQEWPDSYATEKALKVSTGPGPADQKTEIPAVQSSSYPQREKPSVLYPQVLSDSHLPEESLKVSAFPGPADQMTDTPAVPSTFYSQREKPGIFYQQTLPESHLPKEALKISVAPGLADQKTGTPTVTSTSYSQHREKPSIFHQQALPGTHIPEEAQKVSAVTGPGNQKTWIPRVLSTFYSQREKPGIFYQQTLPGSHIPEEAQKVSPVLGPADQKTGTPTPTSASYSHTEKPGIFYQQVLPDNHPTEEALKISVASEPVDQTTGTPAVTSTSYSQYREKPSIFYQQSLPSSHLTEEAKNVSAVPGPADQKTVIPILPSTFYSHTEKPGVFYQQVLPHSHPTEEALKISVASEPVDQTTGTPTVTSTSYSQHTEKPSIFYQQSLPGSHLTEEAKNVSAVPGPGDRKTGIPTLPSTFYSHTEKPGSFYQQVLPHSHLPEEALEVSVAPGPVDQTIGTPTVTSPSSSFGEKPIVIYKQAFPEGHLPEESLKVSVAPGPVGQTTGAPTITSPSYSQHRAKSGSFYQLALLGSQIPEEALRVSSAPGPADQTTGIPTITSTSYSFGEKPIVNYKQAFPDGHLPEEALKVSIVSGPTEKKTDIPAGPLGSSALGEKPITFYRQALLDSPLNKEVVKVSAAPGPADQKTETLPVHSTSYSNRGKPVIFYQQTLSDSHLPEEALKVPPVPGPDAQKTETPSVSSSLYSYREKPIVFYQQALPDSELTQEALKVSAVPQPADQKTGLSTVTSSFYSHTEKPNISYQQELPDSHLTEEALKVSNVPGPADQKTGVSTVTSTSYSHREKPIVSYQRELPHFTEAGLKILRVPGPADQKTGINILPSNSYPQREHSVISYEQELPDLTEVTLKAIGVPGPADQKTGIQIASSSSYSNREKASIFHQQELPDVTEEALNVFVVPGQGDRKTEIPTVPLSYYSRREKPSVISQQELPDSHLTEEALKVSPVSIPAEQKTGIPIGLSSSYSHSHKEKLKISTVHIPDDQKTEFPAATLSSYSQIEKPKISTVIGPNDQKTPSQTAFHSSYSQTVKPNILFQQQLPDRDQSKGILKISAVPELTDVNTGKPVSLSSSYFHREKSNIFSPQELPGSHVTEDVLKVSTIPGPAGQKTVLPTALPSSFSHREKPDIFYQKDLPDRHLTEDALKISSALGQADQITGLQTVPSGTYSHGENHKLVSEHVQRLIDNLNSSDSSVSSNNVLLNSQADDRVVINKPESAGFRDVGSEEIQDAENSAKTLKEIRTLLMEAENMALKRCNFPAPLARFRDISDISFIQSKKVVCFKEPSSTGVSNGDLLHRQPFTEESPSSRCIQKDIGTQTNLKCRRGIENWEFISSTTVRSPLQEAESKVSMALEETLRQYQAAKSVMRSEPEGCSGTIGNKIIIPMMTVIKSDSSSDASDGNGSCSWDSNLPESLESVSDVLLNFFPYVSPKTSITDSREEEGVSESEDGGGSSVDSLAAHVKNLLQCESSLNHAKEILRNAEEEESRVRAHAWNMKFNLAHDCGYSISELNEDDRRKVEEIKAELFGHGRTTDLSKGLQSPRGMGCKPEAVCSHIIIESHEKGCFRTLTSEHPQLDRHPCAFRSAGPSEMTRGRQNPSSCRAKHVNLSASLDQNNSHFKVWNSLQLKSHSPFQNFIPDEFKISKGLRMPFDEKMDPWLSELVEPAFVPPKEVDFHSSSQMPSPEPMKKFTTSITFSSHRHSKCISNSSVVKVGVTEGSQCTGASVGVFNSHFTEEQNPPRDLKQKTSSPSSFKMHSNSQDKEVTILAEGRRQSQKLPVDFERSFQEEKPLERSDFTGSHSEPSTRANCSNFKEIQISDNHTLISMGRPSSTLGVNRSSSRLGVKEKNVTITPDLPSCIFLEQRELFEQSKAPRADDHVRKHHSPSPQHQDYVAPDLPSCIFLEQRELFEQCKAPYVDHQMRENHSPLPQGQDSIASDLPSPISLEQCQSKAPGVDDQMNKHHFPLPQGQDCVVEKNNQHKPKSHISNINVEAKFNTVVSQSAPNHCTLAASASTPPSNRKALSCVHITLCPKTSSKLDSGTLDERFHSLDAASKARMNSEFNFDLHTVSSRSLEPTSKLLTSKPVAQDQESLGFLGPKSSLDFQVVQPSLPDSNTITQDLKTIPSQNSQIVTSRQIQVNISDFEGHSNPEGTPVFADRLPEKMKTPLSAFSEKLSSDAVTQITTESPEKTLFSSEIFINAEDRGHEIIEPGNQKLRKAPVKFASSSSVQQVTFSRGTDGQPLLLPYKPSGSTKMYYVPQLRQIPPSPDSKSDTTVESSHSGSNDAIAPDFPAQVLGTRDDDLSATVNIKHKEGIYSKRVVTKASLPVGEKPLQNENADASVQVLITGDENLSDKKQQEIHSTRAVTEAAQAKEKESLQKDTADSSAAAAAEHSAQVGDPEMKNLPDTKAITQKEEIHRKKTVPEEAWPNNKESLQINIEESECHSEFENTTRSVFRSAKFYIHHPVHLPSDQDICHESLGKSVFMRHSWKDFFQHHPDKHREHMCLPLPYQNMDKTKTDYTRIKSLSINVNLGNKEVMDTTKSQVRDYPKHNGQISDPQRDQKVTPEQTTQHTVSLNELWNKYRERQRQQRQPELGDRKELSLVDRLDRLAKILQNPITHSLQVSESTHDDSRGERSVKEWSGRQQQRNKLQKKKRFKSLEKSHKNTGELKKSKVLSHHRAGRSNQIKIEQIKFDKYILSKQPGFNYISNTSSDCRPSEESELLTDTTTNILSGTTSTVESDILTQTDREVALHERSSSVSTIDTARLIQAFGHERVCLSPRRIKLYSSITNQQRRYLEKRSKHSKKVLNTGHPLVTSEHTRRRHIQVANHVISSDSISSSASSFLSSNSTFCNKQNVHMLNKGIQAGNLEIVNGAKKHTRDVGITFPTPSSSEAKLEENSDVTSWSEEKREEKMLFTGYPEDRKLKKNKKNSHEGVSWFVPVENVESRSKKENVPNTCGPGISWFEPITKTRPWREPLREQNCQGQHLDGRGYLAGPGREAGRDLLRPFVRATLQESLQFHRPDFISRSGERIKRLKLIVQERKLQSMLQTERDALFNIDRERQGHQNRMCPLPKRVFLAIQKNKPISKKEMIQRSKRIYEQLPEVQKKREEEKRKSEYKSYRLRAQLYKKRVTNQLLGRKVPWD
# UniProt Q9BTV5: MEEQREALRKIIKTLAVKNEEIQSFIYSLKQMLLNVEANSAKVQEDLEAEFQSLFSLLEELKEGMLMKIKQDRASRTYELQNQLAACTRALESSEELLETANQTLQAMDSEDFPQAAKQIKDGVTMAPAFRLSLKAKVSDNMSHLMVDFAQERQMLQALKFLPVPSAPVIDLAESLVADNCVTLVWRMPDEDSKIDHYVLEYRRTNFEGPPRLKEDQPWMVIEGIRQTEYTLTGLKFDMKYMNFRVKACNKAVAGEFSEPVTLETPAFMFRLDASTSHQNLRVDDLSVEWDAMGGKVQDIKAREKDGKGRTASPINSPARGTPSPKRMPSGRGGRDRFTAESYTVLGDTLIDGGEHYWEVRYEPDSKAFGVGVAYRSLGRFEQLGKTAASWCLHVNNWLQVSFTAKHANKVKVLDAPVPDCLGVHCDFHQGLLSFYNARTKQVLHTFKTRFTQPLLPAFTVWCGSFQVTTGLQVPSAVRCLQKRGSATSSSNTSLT
# UniProt Q9NT62: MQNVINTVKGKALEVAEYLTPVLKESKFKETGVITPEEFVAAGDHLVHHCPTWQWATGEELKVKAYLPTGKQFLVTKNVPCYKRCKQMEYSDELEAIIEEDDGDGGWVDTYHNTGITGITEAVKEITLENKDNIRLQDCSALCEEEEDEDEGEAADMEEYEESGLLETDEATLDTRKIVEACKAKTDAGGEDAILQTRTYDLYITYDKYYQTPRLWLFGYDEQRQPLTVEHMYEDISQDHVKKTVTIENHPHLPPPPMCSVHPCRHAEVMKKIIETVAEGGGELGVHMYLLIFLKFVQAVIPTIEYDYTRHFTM
# UniProt P10644: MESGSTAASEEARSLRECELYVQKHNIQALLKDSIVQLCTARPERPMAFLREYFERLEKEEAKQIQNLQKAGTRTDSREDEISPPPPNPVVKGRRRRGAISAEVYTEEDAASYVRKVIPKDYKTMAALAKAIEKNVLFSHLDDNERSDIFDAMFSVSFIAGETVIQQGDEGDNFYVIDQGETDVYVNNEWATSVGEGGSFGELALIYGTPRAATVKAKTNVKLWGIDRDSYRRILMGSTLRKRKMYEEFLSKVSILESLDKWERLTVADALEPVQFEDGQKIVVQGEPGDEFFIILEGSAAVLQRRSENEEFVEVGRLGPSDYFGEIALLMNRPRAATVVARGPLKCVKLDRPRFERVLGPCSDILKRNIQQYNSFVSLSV
# UniProt O43823: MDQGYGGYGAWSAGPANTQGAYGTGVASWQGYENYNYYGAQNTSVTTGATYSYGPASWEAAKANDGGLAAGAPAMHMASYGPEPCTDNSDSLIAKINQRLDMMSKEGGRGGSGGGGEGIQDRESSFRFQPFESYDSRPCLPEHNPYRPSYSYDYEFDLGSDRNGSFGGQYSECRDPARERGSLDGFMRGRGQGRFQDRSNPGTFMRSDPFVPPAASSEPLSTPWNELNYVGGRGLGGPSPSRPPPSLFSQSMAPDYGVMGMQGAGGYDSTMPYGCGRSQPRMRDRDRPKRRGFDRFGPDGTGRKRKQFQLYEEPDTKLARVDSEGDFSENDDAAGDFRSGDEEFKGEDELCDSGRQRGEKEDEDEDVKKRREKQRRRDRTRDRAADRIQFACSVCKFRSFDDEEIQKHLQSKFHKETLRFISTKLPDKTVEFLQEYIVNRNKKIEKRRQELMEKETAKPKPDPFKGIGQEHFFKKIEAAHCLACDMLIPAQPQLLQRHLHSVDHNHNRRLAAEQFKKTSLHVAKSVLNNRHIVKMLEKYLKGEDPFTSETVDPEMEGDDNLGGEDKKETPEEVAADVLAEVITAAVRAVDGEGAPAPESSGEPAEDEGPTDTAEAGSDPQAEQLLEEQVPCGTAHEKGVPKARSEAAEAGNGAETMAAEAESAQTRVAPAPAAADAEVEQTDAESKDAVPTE
# UniProt Q07812: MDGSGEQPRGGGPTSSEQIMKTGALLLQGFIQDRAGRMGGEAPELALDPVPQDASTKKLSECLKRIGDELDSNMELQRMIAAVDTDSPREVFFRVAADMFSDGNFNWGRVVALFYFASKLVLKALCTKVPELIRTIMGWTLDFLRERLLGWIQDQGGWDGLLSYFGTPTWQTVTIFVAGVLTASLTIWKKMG
# No constants are given. Whether binding was seen depends on the method and setting. Binding seen in cells or lysates may run through a third protein. Here binding means that the protein was enriched with, or labelled near, the bait; the list need not be complete. For part of these data: No binding means not detected with the bait. For part of these data: Where a sequence is shown, tags or fusion partners need not be part of it.
# T1: N-terminal Strep/FLAG-tagged CEP70 full-length (NSF-CEP70) (human) (UniProt Q8NHQ1)
# T1 sequence: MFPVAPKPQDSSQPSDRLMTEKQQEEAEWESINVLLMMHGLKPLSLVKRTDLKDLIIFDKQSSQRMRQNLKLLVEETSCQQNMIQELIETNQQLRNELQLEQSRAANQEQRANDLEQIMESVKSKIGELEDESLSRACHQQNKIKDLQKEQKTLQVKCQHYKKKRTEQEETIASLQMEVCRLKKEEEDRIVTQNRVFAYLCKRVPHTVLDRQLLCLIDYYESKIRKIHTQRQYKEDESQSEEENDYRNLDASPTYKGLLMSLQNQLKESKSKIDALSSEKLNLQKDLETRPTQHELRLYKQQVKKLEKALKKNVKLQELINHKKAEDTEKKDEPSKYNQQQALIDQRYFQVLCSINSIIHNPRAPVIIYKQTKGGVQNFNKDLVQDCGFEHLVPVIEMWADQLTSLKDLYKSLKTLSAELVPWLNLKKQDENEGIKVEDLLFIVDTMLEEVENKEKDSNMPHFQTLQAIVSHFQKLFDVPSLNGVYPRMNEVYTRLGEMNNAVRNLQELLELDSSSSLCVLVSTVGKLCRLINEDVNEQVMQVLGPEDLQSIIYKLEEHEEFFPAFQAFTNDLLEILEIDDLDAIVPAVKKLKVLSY
# B1: CEP135 (protein, UniProt Q66GS9 1-1140)
# chain: MTTAVERKYINIRKRLDQLGYRQTLTVECLPLVEKLFSDLVHTTESLRQSKLSAVKAEKESANFDFVLEPYKLENARLSRENNELYLELMKLREHSDQHVKELKTSLKKCARETADLKFLNNQYAHKLKLLEKESKAKNERIQQLQEKNLHAVVQTPGGKKRSIAFRRQRMQIDEPVPPSEVSSYPVPQPDDPYIADLLQVADNRIQELQQEVHQLQEKLAMMESGVRDYSKQIELREREIERLSVALDGGRSPDVLSLESRNKTNEKLIAHLNIQVDFLQQANKDLEKRIRELMETKETVTSEVVNLSNKNEKLCQELTEIDQLAQQLERHKEEVLETADKELGEAKKEIKRKLSEMQDLEETMAKLQLELNLCQKEKERLSDELLVKSDLETVVHQLEQEKQRLSKKVESFAVTERQLTLEVERMRLEHGIKRRDRSPSRLDTFLKGIEEERDYYKKELERLQHIIQRRSCSTSYSAREKSSIFRTPEKGDYNSEIHQITRERDELQRMLERFEKYMEDIQSNVKLLTAERDKLSVLYNEAQEELSALRKESTQTTAPHNIVSLMEKEKELALSDLRRIMAEKEALREKLEHIEEVSLFGKSELEKTIEHLTCVNHQLESEKYELKSKVLIMKETIESLENKLKVQAQKFSHVAGDSSHQKTEVNSLRIVNEQLQRSVDDYQHRLSIKRGELESAQAQIKILEEKIDELNLKMTSQDEEAHVMKKTIGVIDKEKDFLQETVDEKTEKIANLQENLANKEKAVAQMKIMISECESSVNQLKETLVNRDREINSLRRQLDAAHKELDEVGRSREIAFKENRRLQDDLATMARENQEISLELEAAVQEKEEMKSRVHKYITEVSRWESLMAAKEKENQDLLDRFQMLHNRAEDWEVKAHQAEGESSSVRLELLSIDTERRHLRERVELLEKEIQEHINAHHAYESQISSMAKAMSRLEEELRHQEDEKATVLNDLSSLRELCIKLDSGKDIMTQQLNSKNLEFERVVVELENVKSESDLLKKQLSNERHTVKNLESLLATNRDKEFHSHLTSHEKDTEIQLLKEKLTLSESKLTSQSRENTMLRAKVAQLQTDYDALKRQISTERYERERAIQEMRRHGLATPPLSSTLRSPSHSPEHRNV
# B2: Ectonucleotide pyrophosphatase/phosphodiesterase family member 1 (ENPP1) (protein, UniProt P22413 1-925)
# chain: MERDGCAGGGSRGGEGGRAPREGPAGNGRDRGRSHAAEAPGDPQAAASLLAPMDVGEEPLEKAARARTAKDPNTYKVLSLVLSVCVLTTILGCIFGLKPSCAKEVKSCKGRCFERTFGNCRCDAACVELGNCCLDYQETCIEPEHIWTCNKFRCGEKRLTRSLCACSDDCKDKGDCCINYSSVCQGEKSWVEEPCESINEPQCPAGFETPPTLLFSLDGFRAEYLHTWGGLLPVISKLKKCGTYTKNMRPVYPTKTFPNHYSIVTGLYPESHGIIDNKMYDPKMNASFSLKSKEKFNPEWYKGEPIWVTAKYQGLKSGTFFWPGSDVEINGIFPDIYKMYNGSVPFEERILAVLQWLQLPKDERPHFYTLYLEEPDSSGHSYGPVSSEVIKALQRVDGMVGMLMDGLKELNLHRCLNLILISDHGMEQGSCKKYIYLNKYLGDVKNIKVIYGPAARLRPSDVPDKYYSFNYEGIARNLSCREPNQHFKPYLKHFLPKRLHFAKSDRIEPLTFYLDPQWQLALNPSERKYCGSGFHGSDNVFSNMQALFVGYGPGFKHGIEADTFENIEVYNLMCDLLNLTPAPNNGTHGSLNHLLKNPVYTPKHPKEVHPLVQCPFTRNPRDNLGCSCNPSILPIEDFQTQFNLTVAEEKIIKHETLPYGRPRVLQKENTICLLSQHQFMSGYSQDILMPLWTSYTVDRNDSFSTEDFSNCLYQDFRIPLSPVHKCSFYKNNTKVSYGFLSPPQLNKNSSGIYSEALLTTNIVPMYQSFQVIWRYFHDTLLRKYAEERNGVNVVSGPVFDFDYDGRCDSLENLRQKRRVIRNQEILIPTHFFIVLTSCKDTSQTPLHCENLDTLAFILPHRTDNSESCVHGKHDSSWVEELLMLHRARITDVEHITGLSFYQQRKEPVSDILKLKTHLPTFSQED
# B3: UACA (protein, UniProt Q9BZF9 1-1416)
# chain: MKSLKSRLRRQDVPGPASSGAAAASAHAADWNKYDDRLMKAAERGDVEKVTSILAKKGVNPGKLDVEGRSVFHVVTSKGNLECLNAILIHGVDITTSDTAGRNALHLAAKYGHALCLQKLLQYNCPTEHADLQGRTALHDAAMADCPSSIQLLCDHGASVNAKDVDGRTPLVLATQMSRPTICQLLIDRGADVNSRDKQNRTALMLGCEYGCRDAVEVLIKNGADISLLDALGHDSSYYARIGDNLDILTLLKTASENTNKGRELWKKGPSLQQRNLTHMQDEVNVKSHQREHQNIQDLEIENEDLKERLRKIQQEQRILLDKVNGLQLQLNEEVMVADDLESEREKLKSLLAAKEKQHEESLRTIEALKNRFKYFESDHLGSGSHFSNRKEDMLLKQGQMYMADSQCTSPGIPAHMQSRSMLRPLELSLPSQTSYSENEILKKELEAMRTFCESAKQDRLKLQNELAHKVAECKALALECERVKEDSDEQIKQLEDALKDVQKRMYESEGKVKQMQTHFLALKEHLTSEAASGNHRLTEELKDQLKDLKVKYEGASAEVGKLRNQIKQNEMIVEEFKRDEGKLIEENKRLQKELSMCEMEREKKGRKVTEMEGQAKELSAKLALSIPAEKFENMKSSLSNEVNEKAKKLVEMEREHEKSLSEIRQLKRELENVKAKLAQHVKPEEHEQVKSRLEQKSGELGKKITELTLKNQTLQKEIEKVYLDNKLLKEQAHNLTIEMKNHYVPLKVSEDMKKSHDAIIDDLNRKLLDVTQKYTEKKLEMEKLLLENDSLSKDVSRLETVFVPPEKHEKEIIALKSNIVELKKQLSELKKKCGEDQEKIHALTSENTNLKKMMSNQYVPVKTHEEVKMTLNDTLAKTNRELLDVKKKFEDINQEFVKIKDKNEILKRNLENTQNQIKAEYISLAEHEAKMSSLSQSMRKVQDSNAEILANYRKGQEEIVTLHAEIKAQKKELDTIQECIKVKYAPIVSFEECERKFKATEKELKDQLSEQTQKYSVSEEEVKKNKQENDKLKKEIFTLQKDLRDKTVLIEKSHEMERALSRKTDELNKQLKDLSQKYTEVKNVKEKLVEENAKQTSEILAVQNLLQKQHVPLEQVEALKKSLNGTIENLKEELKSMQRCYEKEQQTVTKLHQLLENQKNSSVPLAEHLQIKEAFEKEVGIIKASLREKEEESQNKMEEVSKLQSEVQNTKQALKKLETREVVDLSKYKATKSDLETQISSLNEKLANLNRKYEEVCEEVLHAKKKEISAKDEKELLHFSIEQEIKDQKERCDKSLTTITELQRRIQESAKQIEAKDNKITELLNDVERLKQALNGLSQLTYTSGNPTKRQSQLIDTLQHQVKSLEQQLADADRQHQEVIAIYRTHLLSAAQGHMDEDVQEALLQIIQMRQGLVC
# B4: TP53PK (protein, UniProt Q96S44 1-253)
# chain: MAAARATTPADGEEPAPEAEALAAARERSSRFLSGLELVKQGAEARVFRGRFQGRAAVIKHRFPKGYRHPALEARLGRRRTVQEARALLRCRRAGISAPVVFFVDYASNCLYMEEIEGSVTVRDYIQSTMETEKTPQGLSNLAKTIGQVLARMHDEDLIHGDLTTSNMLLKPPLEQLNIVLIDFGLSFISALPEDKGVDLYVLEKAFLSTHPNTETVFEAFLKSYSTSSKKARPVLKKLDEVRLRGRKRSMVG
# How the values were obtained:
# [1] = molecular target: T1, N-terminal Strep/FLAG-tagged CEP70 full-length (NSF-CEP70) (human); assay: affinity purification with mass spectrometry; FLAG agarose on lysates (0.5% NP40) of HEK293T transfected with NSF-CEP70 full-length, CC1-2 or TPR-CT; 1 h at 4 °C; on-bead digest; NSF-RAF1 as control; six replicates; label-free quantification, Tier 1/Tier 2 statistics
# [2] = molecular target: endogenously sfGFP-tagged ALMS1 (ALMS1-sfGFP) (human (endogenous in HEK293T)) (UniProt Q8TCU4); assay: affinity purification with mass spectrometry; GFP-Trap agarose on lysates (0.5% NP40) of three HEK293T single clones with endogenous ALMS1-sfGFP, starved overnight; 1 h at 4 °C; untagged HEK293T as control; six replicates; label-free quantification, Tier 1/Tier 2 statistics
Molecule,binding [1],binding [2]
ASPM (from UniProt Q8IZT6 1-3477),binds,binds
FSD1 (from UniProt Q9BTV5 1-496),–,binds
AKAP11 (from UniProt Q9UKA4 1-1901),–,binds
histone deacetylase 6 (HDAC6) (from UniProt Q9UBN7 1-1215),no binding,binds
ATG3 (from UniProt Q9NT62 1-314),binds,–
CXorf56 (from UniProt Q9H5V9 1-222),binds,binds
PRKAR1A (from UniProt P10644 1-381),–,binds
E3 ubiquitin-protein ligase HERC2 (from UniProt O95714 1-4834),–,binds
UBR4 (from UniProt Q5T4S7 1-5183),binds,–
NEURL4 (from UniProt Q96JN8 1-1562),–,binds
AKAP8 (from UniProt O43823 1-692),binds,binds
CEP350 (from UniProt Q5VT06 1-3117),binds,–
BAX (from UniProt Q07812 1-192),binds,–
B1,binds,–
B2,binds,–
B3,binds,–
B4,binds,–
